{
  "source": "paper PMC4686814",
  "about": "(Nature communications, 2015)",
  "key": {"[1]": {"target": "MsVps4 Phe126Ala, full length, N-terminally His-tagged (Metallosphera sedula) (UniProt A4YHC5)", "test": "SEC-MALS; Superose 6 in 50 mM Tris pH 8.8, 50 mM NaCl; MsVps4 Phe126Ala injected at 200 µM; both purified"}, "[2]": {"target": "MsVps4 Phe126Ala, full length, N-terminally His-tagged (Metallosphera sedula) (UniProt A4YHC5)", "test": "SEC; Superose 6; N-terminally His-tagged full length MsVps4 and mutants at 70 µM, a concentration that induces dodecamer formation; no nucleotide; both purified"}},
  "note": "Results are given in words; binding and its absence hold for the method and conditions named. Sequences can lack the tags named with a protein.",
  "data": [
    {"binder": "MsVps4 Phe126Ala, full length, N-terminally His-tagged (enzyme, UniProt A4YHC5 1-369) MSAQVMLEEMARKYAIAAVRADKEGRREDAINNYKKAIEVLTQIVTLYPDMVARNAYEQMINEYKKRLETLNQMVPEGGEETEKAEEDIVMKEKPKVTLNEIVGLEDVKEALKEAVVYPSKRPDLAPLGWPRGILLYGPPGCGKTMIAAAVANELDSEFIHVDAASIMSKWLGEAEKNVAKIFKTARELSKKENKPAIIFIDELDALLASYTSEVGGEARVRNQFLKEMDGLADKNEISKVYVIGATNKPWRLDEPFLRRFQKRIYITLPDKAHRLELLKHYSSKVKLDPNVNLEELAELTDGYTASDIRDIVQSAHMRVVKEMFEKNLQEPRAINMDDFREVLKVRKPSVNQDMLKAYAAWHEKFKAL", "values": [
      {"measurement": "binding", "setting": "[1]", "value": "no binding (tested: 200 µM)"},
      {"measurement": "binding", "setting": "[2]", "value": "no binding (tested: 70 µM)"}
    ]}
  ]
}
